# Where a name gives a salt, the structure may show the parent alone. The list shows a part of the results. The calls rarely recur for the same compound in another form.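 Kinases, fused to nanoluciferase, were expressed in K562 cells; luminescence was measured every 4 h from 2 to 18 h as percent of control (DMSO = 100%, positive control = 0%). A time point is decreased if signal falls significantly (2 sigma). Hits were called by the authors by a rule that is not shown; the count of time points alone does not decide it.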
# Chains of the proteins cited; added tags and fusions are not shown. Lines headed by an entry give the natural chain unless they say otherwise; changes in a name come on top.
# UniProt P36888, whole entry: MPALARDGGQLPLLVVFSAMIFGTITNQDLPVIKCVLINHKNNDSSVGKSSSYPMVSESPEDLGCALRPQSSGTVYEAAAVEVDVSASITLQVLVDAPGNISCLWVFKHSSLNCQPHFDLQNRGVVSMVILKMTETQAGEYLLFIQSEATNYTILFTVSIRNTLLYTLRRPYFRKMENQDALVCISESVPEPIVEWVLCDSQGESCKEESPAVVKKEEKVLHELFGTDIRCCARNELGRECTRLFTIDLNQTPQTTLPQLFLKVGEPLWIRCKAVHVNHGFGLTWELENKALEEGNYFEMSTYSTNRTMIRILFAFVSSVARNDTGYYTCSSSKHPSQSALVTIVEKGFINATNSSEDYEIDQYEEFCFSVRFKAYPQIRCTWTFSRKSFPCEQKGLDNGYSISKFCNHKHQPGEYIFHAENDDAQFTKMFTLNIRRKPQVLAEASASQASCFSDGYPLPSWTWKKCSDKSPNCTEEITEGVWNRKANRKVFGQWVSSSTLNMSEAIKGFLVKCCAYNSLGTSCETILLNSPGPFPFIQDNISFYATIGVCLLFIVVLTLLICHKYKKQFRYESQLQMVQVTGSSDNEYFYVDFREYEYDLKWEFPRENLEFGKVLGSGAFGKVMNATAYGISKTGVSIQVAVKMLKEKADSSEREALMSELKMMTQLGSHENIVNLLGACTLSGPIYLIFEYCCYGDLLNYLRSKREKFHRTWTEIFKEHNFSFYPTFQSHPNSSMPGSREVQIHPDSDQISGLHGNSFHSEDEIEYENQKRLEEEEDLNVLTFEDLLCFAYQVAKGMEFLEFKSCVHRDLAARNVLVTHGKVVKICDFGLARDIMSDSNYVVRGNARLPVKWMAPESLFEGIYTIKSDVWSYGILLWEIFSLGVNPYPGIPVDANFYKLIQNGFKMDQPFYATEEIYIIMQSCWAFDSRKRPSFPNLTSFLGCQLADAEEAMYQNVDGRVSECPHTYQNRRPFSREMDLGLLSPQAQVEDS
# UniProt P06241, whole entry, looked up: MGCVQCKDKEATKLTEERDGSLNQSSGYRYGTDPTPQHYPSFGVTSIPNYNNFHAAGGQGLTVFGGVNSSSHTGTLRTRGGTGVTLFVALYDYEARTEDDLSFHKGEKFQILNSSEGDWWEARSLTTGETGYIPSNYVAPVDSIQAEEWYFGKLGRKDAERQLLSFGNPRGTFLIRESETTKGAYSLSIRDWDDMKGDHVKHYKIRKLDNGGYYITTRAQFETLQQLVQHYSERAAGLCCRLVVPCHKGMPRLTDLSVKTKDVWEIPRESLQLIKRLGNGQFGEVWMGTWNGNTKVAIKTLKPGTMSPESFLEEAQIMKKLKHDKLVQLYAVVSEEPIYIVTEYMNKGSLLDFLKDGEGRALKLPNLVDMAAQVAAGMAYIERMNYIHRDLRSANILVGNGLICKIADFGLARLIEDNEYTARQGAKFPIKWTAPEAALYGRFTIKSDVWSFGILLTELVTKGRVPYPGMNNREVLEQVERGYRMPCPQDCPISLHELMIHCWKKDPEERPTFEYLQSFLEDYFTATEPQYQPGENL
# UniProt P49840: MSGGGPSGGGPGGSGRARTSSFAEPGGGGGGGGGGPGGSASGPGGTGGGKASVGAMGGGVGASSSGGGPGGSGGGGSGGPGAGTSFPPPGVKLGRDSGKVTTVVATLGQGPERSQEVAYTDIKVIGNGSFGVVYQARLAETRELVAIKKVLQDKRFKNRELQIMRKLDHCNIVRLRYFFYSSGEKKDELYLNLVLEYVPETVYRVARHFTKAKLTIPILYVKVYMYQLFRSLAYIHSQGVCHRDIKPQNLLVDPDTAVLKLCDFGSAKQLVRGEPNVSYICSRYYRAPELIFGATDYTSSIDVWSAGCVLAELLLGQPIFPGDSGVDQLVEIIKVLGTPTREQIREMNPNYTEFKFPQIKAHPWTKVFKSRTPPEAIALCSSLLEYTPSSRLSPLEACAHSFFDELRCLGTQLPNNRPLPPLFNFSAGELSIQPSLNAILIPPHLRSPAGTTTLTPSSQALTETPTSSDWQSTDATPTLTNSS
# UniProt P14616: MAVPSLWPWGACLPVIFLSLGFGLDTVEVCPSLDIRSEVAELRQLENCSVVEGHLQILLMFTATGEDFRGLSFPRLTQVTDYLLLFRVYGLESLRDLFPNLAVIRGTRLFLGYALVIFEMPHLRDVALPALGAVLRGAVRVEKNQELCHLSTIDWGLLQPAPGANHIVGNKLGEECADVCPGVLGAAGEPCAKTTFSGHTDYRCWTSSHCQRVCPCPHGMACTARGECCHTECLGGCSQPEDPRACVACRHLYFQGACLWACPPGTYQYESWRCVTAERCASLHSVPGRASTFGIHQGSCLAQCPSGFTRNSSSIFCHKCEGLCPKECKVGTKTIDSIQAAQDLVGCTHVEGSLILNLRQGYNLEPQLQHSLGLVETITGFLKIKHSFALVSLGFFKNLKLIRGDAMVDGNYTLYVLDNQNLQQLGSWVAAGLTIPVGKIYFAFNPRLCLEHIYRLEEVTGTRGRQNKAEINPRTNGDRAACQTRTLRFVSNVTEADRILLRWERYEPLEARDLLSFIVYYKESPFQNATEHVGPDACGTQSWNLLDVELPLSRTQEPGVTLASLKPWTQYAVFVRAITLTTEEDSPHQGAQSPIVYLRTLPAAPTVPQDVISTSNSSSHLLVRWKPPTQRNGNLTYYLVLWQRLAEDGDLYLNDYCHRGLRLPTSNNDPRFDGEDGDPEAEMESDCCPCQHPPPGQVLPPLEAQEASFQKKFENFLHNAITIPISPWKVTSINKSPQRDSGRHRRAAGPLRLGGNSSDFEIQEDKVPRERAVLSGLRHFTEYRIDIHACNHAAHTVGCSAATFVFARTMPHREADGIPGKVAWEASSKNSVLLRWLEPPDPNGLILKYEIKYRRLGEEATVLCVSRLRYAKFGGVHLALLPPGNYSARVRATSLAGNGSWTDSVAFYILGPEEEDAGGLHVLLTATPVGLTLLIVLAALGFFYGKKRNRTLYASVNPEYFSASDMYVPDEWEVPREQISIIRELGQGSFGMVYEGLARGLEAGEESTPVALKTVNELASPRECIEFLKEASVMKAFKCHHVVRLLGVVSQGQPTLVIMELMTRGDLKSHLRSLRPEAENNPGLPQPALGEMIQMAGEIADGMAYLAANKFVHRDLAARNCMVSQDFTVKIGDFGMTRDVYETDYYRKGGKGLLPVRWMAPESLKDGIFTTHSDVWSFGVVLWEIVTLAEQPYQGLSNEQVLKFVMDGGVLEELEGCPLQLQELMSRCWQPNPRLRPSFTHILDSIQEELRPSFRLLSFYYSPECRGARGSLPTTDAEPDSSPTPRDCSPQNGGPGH
# UniProt Q9Y616: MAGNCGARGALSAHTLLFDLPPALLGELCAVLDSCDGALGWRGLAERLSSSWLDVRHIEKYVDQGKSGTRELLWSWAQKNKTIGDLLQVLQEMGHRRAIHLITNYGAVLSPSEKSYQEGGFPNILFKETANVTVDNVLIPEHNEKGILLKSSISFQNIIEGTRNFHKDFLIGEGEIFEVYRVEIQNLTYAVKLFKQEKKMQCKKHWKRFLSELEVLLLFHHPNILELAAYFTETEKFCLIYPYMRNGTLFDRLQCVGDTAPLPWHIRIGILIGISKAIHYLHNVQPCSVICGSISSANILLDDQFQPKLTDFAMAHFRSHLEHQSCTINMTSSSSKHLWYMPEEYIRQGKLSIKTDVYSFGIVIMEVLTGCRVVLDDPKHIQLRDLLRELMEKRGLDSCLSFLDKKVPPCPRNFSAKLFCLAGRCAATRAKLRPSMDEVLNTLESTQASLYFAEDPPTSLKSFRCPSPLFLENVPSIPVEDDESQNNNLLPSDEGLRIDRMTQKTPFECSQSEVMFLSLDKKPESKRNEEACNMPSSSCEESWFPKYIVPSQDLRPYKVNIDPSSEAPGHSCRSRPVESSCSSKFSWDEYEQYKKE
# UniProt P06239: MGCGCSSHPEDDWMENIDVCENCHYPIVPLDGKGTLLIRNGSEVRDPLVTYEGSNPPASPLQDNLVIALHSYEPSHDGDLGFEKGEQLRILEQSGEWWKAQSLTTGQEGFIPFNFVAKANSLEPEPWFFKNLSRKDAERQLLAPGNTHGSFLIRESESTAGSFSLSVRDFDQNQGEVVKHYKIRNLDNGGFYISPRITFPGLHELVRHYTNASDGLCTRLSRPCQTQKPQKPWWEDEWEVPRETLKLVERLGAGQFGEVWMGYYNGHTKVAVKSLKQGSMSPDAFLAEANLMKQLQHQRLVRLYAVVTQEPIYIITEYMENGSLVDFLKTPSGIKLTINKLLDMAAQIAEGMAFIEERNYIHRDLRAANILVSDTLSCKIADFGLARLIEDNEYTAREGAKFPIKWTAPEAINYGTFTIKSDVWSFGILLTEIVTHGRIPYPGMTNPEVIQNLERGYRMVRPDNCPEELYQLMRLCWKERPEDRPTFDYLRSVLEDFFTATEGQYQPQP
# UniProt P53667: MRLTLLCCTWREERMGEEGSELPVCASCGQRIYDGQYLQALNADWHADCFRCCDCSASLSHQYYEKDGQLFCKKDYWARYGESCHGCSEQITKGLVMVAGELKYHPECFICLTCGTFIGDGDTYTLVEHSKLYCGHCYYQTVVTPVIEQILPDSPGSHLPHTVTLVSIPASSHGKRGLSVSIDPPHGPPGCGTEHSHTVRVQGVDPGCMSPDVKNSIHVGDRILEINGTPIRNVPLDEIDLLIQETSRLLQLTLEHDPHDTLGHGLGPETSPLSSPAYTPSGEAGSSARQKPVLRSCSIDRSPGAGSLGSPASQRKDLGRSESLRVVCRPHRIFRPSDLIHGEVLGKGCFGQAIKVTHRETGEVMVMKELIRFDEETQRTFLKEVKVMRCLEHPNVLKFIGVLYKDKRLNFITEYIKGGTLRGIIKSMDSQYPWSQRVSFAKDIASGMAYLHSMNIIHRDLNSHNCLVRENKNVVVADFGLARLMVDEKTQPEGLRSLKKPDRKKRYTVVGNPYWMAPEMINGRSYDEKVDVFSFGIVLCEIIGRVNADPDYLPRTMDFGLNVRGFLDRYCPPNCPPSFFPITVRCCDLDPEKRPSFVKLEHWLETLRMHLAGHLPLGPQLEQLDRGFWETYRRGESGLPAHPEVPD
# UniProt P07948: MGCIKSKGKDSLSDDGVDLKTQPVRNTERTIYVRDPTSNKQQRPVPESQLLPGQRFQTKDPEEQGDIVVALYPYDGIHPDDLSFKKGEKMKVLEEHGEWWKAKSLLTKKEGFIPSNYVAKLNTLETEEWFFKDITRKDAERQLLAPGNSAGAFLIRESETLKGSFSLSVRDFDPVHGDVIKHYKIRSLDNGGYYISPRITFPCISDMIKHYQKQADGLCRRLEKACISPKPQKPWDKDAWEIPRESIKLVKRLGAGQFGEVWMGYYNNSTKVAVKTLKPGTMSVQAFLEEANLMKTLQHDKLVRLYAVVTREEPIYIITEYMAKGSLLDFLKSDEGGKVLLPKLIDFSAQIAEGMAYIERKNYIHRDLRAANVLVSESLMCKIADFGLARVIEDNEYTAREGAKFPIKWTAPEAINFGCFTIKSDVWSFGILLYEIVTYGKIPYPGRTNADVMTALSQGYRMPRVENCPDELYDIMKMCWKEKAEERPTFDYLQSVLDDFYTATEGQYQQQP
# UniProt P28482, whole entry: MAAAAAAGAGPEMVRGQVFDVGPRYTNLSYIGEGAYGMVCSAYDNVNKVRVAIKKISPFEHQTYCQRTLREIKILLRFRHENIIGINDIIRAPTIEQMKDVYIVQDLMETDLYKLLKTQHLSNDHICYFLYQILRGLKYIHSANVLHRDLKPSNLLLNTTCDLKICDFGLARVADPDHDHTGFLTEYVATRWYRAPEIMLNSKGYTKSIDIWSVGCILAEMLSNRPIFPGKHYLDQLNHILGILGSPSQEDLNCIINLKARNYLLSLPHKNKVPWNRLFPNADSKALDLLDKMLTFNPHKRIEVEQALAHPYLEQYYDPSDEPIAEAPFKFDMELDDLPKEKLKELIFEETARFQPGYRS
# UniProt P31152, whole entry: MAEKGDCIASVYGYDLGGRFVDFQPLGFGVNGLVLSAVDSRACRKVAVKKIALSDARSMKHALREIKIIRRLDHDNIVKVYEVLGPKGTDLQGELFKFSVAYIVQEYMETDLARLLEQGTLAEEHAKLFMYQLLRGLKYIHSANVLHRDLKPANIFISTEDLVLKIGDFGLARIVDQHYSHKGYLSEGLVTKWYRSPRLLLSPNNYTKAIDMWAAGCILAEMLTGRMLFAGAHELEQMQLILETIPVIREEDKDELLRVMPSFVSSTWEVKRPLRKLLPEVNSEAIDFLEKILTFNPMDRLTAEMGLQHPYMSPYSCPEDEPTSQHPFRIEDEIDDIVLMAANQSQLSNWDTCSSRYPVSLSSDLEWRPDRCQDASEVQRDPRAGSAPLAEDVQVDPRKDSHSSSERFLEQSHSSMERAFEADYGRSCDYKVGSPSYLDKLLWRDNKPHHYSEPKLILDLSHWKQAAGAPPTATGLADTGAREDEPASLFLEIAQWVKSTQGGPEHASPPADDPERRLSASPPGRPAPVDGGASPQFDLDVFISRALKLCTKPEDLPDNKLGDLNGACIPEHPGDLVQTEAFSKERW
# Experiments:
# Assay in all cases: number of time points (of 5) at which kinase-Nluc abundance scored as decreased, DMSO-normalised (count); higher = more persistent destabilization
# Details in all cases: K562; 2-18 h
# FLT3 = FLT3 (UniProt P36888)
# FYN = FYN (UniProt P06241)
# GSK3A = GSK3A (UniProt P49840)
# HER2 = HER2 (UniProt P04626)
# INSRR = INSRR (UniProt P14616)
# IRAK3 = IRAK3 (UniProt Q9Y616)
# JAK1 = JAK1 (UniProt P23458)
# LCK = LCK (UniProt P06239)
# LIMK1 = LIMK1 (UniProt P53667)
# LIMK2 = LIMK2 (UniProt P53671)
# LMTK2 = LMTK2 (UniProt Q8IWU2)
# LYN = LYN (UniProt P07948)
# MAP2K1 = MAP2K1 (UniProt Q02750)
# MAP2K2 = MAP2K2 (UniProt P36507)
# MAP4K2 = MAP4K2 (UniProt Q12851)
# MAPK1 = MAPK1 (UniProt P28482)
# MAPK4 = MAPK4 (UniProt P31152)
# MAPKAPK2 = MAPKAPK2 (UniProt P49137)
# MKNK1 = MKNK1 (UniProt Q9BUB5)
# NTRK2 = NTRK2 (UniProt Q16620)
SMILES,number of time points (FLT3),number of time points (FYN),number of time points (GSK3A),number of time points (HER2),number of time points (INSRR),number of time points (IRAK3),number of time points (JAK1),number of time points (LCK),number of time points (LIMK1),number of time points (LIMK2),number of time points (LMTK2),number of time points (LYN),number of time points (MAP2K1),number of time points (MAP2K2),number of time points (MAP4K2),number of time points (MAPK1),number of time points (MAPK4),number of time points (MAPKAPK2),number of time points (MKNK1),number of time points (NTRK2)
CCN(CC)S(=O)(=O)c1ccc(OC)c(N2CCN(C(=O)c3ccc(F)cc3C(F)(F)F)CC2)c1 (10 µM),0,0,0,0,0,0,0,0,0,0,0,0,0,0,0,0,0,0,0,0
Cc1c(CN2CCN(S(C)(=O)=O)CC2)sc2c(N3CCOCC3)nc(-c3cnc(N)nc3)nc12 (2.5 µM),0,0,0,3,0,0,0,0,2,0,0,0,0,0,0,0,0,0,0,0
O=c1cc(O)cc(/C=C/c2ccc(O)c(O)c2)o1 [Hispidin] (10 µM),0,0,0,0,0,0,0,0,0,0,0,0,0,0,0,0,0,0,0,0
Cn1c(=O)c(F)c(Nc2ccc(I)cc2F)c2c(=O)n(C[C@@H](O)CO)cnc21 (10 µM),1,0,0,0,1,0,0,0,0,0,0,0,0,0,0,0,0,0,1,0
Cn1nccc1Nc1nccc(-c2cc3c(s2)C(C)(C)N(CCN2CCOCC2)C3=O)n1 (10 µM),0,0,0,0,0,0,0,0,0,0,0,0,0,0,0,0,0,0,0,0
COc1cc2ncn(-c3cc(OCc4ccccc4S(C)(=O)=O)c(C#N)s3)c2cc1OC (10 µM),0,0,0,0,0,0,0,0,0,0,0,0,0,0,0,0,0,0,0,0
Nc1ncnc2c1ncn2[C@@H]1O[C@H](CO)C[C@H]1O [Cordycepin] (10 µM),0,0,0,0,0,0,0,0,0,0,0,0,0,0,0,0,0,0,0,0
N#Cc1cccc(-c2c[nH]c3ncnc(N4CCOCC4)c23)c1 (10 µM),0,0,0,0,0,0,0,0,0,0,0,0,0,0,0,0,0,0,0,0
O=C(NCCCNC(=O)Nc1cccc(C2=NCCN2)c1)Nc1cccc(C2=NCCN2)c1 [p32 Inhibitor M36] (10 µM),0,0,0,0,0,0,0,0,0,0,0,0,0,0,0,0,0,0,0,0
COc1ccc(C(=C2C(=O)Nc3ccccc32)c2ccc(OC)cc2)cc1 (10 µM),1,0,0,0,0,0,0,0,0,0,0,0,0,0,0,0,0,0,0,0
COc1ccc([C@H]2c3[nH]c4ccc(Cl)cc4c3CCN2C(=O)Oc2ccc(Cl)cc2)cc1 (2.5 µM),0,0,0,0,0,0,0,0,0,0,0,0,0,0,0,0,0,0,0,0
N#Cc1ccc2ncnc(NC3CCC(N4CCOCC4)CC3)c2c1 (stereo not given) (10 µM),0,0,0,0,0,0,0,0,0,0,0,0,0,0,0,0,0,0,0,0
COC1(c2sc3c(N4CCOCC4)nc(-c4cnc(N)nc4)nc3c2C)COC1 (2.5 µM),0,0,1,1,0,0,0,0,0,0,0,0,0,0,0,0,0,0,0,0
COc1ccc(C2CC(c3ccccc3)=NN2c2ccc(S(N)(=O)=O)cc2)cc1 (stereo not given) (10 µM),0,0,0,0,0,0,0,0,0,0,0,0,0,0,0,0,0,0,0,0
N#Cc1c(-c2ccccc2)cc(-c2cc(Br)ccc2O)[nH]c1=O (10 µM),0,0,0,0,0,0,0,0,0,0,0,0,0,0,0,0,0,0,0,0
O=C1c2ccc(Nc3ccc(F)cc3F)cc2CCc2ccc(OC[C@H](O)CO)cc21 [Skepinone-L] (2.5 µM),0,0,0,0,0,0,0,0,0,0,0,0,0,0,0,0,0,0,0,0
O=C(/C=C/c1ccc(O)c(O)c1)c1ccc(O[C@@H]2O[C@H](CO)[C@@H](O)[C@H](O)[C@H]2O)c(O)c1O [Marein] (10 µM),0,0,0,0,0,0,0,0,0,0,0,0,0,0,0,0,0,0,0,0
COc1ccc(-c2ccc3c(N4CCOC[C@@H]4C)nc(N4CCOC[C@@H]4C)nc3n2)cc1CO (2.5 µM),4,3,0,3,4,3,3,0,4,4,3,2,0,0,0,0,1,0,3,3
COc1ccc(Cl)cc1NC(=O)Nc1cc(C)nc2ccccc12 (2.5 µM),0,0,0,0,0,0,0,0,0,0,0,0,0,0,0,0,0,0,0,0
CN1CCN(c2ccc(C(=O)Nc3cc(-c4cccc(NS(=O)(=O)c5ccccc5)c4)[nH]n3)cc2)CC1 [BPR1J-097 Hydrochloride] (2.5 µM),0,0,0,0,0,0,0,0,0,0,1,0,0,0,0,0,0,0,1,0
Cc1ccc(Oc2nc3cc(-c4ccc5c(ccn5C)c4)c(Cl)cc3[nH]2)cc1C(=O)O (10 µM),0,0,0,0,0,0,0,0,0,0,0,0,0,0,0,0,0,0,0,0
"O=C(O)c1cc(O)ccc1O [2,5-Dihydroxybenzoic acid] (10 µM)",0,0,0,0,0,0,0,0,0,0,0,0,0,0,0,0,0,0,0,0
C[C@@]1(O)CCC[C@H]1n1c(=O)c(C(F)F)cc2cnc(NC3CCN(S(C)(=O)=O)CC3)nc21 (2.5 µM),1,0,0,0,0,0,0,0,0,0,2,0,0,0,0,0,0,0,0,0

# 3 structures out of the list, ordered by number of heavy atoms, high to low:
SMILES,number of time points (FLT3),number of time points (FYN),number of time points (GSK3A),number of time points (HER2),number of time points (INSRR),number of time points (IRAK3),number of time points (JAK1),number of time points (LCK),number of time points (LIMK1),number of time points (LIMK2),number of time points (LMTK2),number of time points (LYN),number of time points (MAP2K1),number of time points (MAP2K2),number of time points (MAP4K2),number of time points (MAPK1),number of time points (MAPK4),number of time points (MAPKAPK2),number of time points (MKNK1),number of time points (NTRK2)
Cn1nccc1Nc1nccc(-c2cc3c(s2)C(C)(C)N(CCN2CCOCC2)C3=O)n1 (10 µM),0,0,0,0,0,0,0,0,0,0,0,0,0,0,0,0,0,0,0,0
O=C1c2ccc(Nc3ccc(F)cc3F)cc2CCc2ccc(OC[C@H](O)CO)cc21 [Skepinone-L] (2.5 µM),0,0,0,0,0,0,0,0,0,0,0,0,0,0,0,0,0,0,0,0
N#Cc1cccc(-c2c[nH]c3ncnc(N4CCOCC4)c23)c1 (10 µM),0,0,0,0,0,0,0,0,0,0,0,0,0,0,0,0,0,0,0,0

# Source: the supplement of paper PMC12823440, “Inhibitors supercharge kinase turnover through native proteolytic circuits” (Nature, 2025)
